PubChem BioAssay AID1259254, NCATS, 2017

Purpose: 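Gene knock-downs that lead to re-replication, shown by excess G2 DNA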 (primary screen)
Cell system: human HCT116 colorectal cancer cells
Knock-down reagent: single siRNA against human genes
Duration: 3 days
Detection: 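Nuclei stained with Hoechst and imaged; cell-cycle phase assigned by DNA content; G2 share scaled per plate, non-targeting siRNA 0%, GMNN siRNA 100%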
Reading the numbers: G2 robust z-score and G2 cells, % of GMNN control: higher = more G2 cells, more excess DNA replication; raw share of cells in G2: higher = larger share of cells with G2 DNA content
Rule for the call: 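An siRNA counts as active if its G2 robust z-score lies at least 5 MADs above the screen median; here such calls match roughly 38% of GMNN control or more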
The whole screen tested about 59,000 reagents; below is a random part of them. About 1,550 of all reagents (2.6%) were called active. 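G2 share is only a proxy for re-replication; each gene was hit by three separate siRNAs, and active genes were retested.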 Raw values are not corrected between plates. The numbers tell different reagents against one gene apart. Not given: the amount of reagent.

gene symbol | reagent no. | G2 robust z-score | G2 cells, % of GMNN control | raw share of cells in G2 (%) | call
SLC38A8 | 1 | 0.448 | 6.12 | 5.88 | inactive
SLC38A8 | 2 | -0.323 | 0.693 | 3.13 | inactive
SLC38A8 | 3 | -0.781 | -2.53 | 2.19 | inactive
NKX2-8 | 1 | 3.05 | 24.4 | 12.3 | inactive
NKX2-8 | 2 | -0.875 | -3.19 | 2.95 | inactive
NKX2-8 | 3 | -0.677 | -1.79 | 5.35 | inactive
MRPL4 | 1 | 1.68 | 14.8 | 9.51 | inactive
MRPL4 | 2 | 7.68 | 57 | 26.1 | active
MRPL4 | 3 | -1.48 | -7.47 | 0.898 | inactive
GABPB2 | 1 | 0.669 | 7.67 | 7.07 | inactive
GABPB2 | 2 | -0.837 | -2.92 | 2.18 | inactive
GABPB2 | 3 | 1.91 | 16.4 | 8.52 | inactive
CDK4 | 1 | 0.0572 | 3.37 | 6.72 | inactive
CDK4 | 2 | -0.453 | -0.218 | 5.34 | inactive
CDK4 | 3 | -1.02 | -4.19 | 2.55 | inactive
OR10W1 | 1 | -0.855 | -3.05 | 1.54 | inactive
OR10W1 | 2 | 4.89 | 37.4 | 20 | inactive
OR10W1 | 3 | -0.595 | -1.22 | 3.77 | inactive
KNTC1 | 1 | 3.21 | 25.6 | 16.9 | inactive
KNTC1 | 2 | -0.593 | -1.2 | 3.44 | inactive
KNTC1 | 3 | -0.624 | -1.42 | 2.89 | inactive
MCUB | 1 | 3.93 | 30.6 | 16.3 | inactive
MCUB | 2 | -0.837 | -2.92 | 2.93 | inactive
MCUB | 3 | -0.498 | -0.536 | 2.97 | inactive
SKIL | 1 | 0.472 | 6.29 | 5.96 | inactive
SKIL | 2 | 0.325 | 5.25 | 7.31 | inactive
SKIL | 3 | 1.3 | 12.1 | 7.5 | inactive
PLAGL2 | 1 | -0.959 | -3.78 | 1.96 | inactive
PLAGL2 | 2 | -0.803 | -2.68 | 3.59 | inactive
PLAGL2 | 3 | 2.09 | 17.7 | 9.52 | inactive
SLC16A8 | 1 | -1.01 | -4.17 | 2.44 | inactive
SLC16A8 | 2 | 2.31 | 19.2 | 14.1 | inactive
SLC16A8 | 3 | 0.413 | 5.87 | 6.12 | inactive
ENTPD1-AS1 | 1 | -0.393 | 0.205 | 3.62 | inactive
ENTPD1-AS1 | 2 | -0.474 | -0.365 | 2.74 | inactive
ENTPD1-AS1 | 3 | -0.491 | -0.486 | 3.42 | inactive
PKN3 | 1 | -0.585 | -1.15 | 3.31 | inactive
PKN3 | 2 | 2.03 | 17.2 | 10.9 | inactive
PKN3 | 3 | -0.942 | -3.66 | 3.86 | inactive
C12orf71 | 1 | -0.327 | 0.665 | 4.18 | inactive
C12orf71 | 2 | -0.496 | -0.523 | 3.15 | inactive
C12orf71 | 3 | 0.0195 | 3.1 | 4.32 | inactive
GLCCI1 | 1 | 1.49 | 13.4 | 9.47 | inactive
GLCCI1 | 2 | -0.285 | 0.964 | 3.62 | inactive
GLCCI1 | 3 | 0.506 | 6.53 | 3.73 | inactive
DLX3 | 1 | -0.101 | 2.26 | 5.82 | inactive
DLX3 | 2 | -0.357 | 0.454 | 4.25 | inactive
DLX3 | 3 | -0.758 | -2.36 | 4.12 | inactive
DDA1 | 1 | -0.793 | -2.61 | 3.44 | inactive
DDA1 | 2 | -0.174 | 1.74 | 5.39 | inactive
DDA1 | 3 | 0.695 | 7.86 | 4.77 | inactive
APCDD1 | 1 | -0.162 | 1.83 | 4.44 | inactive
APCDD1 | 2 | 0.398 | 5.77 | 4.69 | inactive
APCDD1 | 3 | -0.423 | -0.00887 | 3.07 | inactive
VPS26C | 1 | -1.17 | -5.23 | 2.97 | inactive
VPS26C | 2 | 3.23 | 25.7 | 14.7 | inactive
VPS26C | 3 | -0.254 | 1.18 | 3.84 | inactive
SRPK3 | 1 | 0.00432 | 3 | 6.52 | inactive
SRPK3 | 2 | 0.0912 | 3.61 | 6.5 | inactive
SRPK3 | 3 | -0.736 | -2.21 | 2.97 | inactive
FES | 1 | 0.372 | 5.58 | 7.45 | inactive
FES | 2 | 2.35 | 19.5 | 12 | inactive
FES | 3 | -0.377 | 0.312 | 4.13 | inactive
CBLB | 1 | -1.13 | -4.99 | 3.02 | inactive
CBLB | 2 | 0.701 | 7.9 | 7.89 | inactive
CBLB | 3 | 0.075 | 3.49 | 5.29 | inactive
ZFAND3 | 1 | 4.66 | 35.8 | 20.2 | inactive
ZFAND3 | 2 | -0.374 | 0.335 | 4.76 | inactive
ZFAND3 | 3 | 6.72 | 50.3 | 16 | active
RPS6KL1 | 1 | -0.703 | -1.98 | 4.97 | inactive
RPS6KL1 | 2 | 1.62 | 14.4 | 10.4 | inactive
RPS6KL1 | 3 | -0.946 | -3.69 | 2.5 | inactive
FRMD4B | 1 | -0.859 | -3.08 | 3.13 | inactive
FRMD4B | 2 | -0.0015 | 2.96 | 4.88 | inactive
FRMD4B | 3 | 0.268 | 4.85 | 8.31 | inactive
ASMT | 1 | -0.567 | -1.02 | 4.71 | inactive
ASMT | 2 | 1.96 | 16.7 | 10.2 | inactive
ASMT | 3 | -0.515 | -0.653 | 4.5 | inactive
TMEM95 | 1 | 0.433 | 6.02 | 6.61 | inactive
TMEM95 | 2 | 0.312 | 5.16 | 5.76 | inactive
TMEM95 | 3 | -0.63 | -1.47 | 2.62 | inactive
FBXO11 | 1 | 0.948 | 9.64 | 9.44 | inactive
FBXO11 | 2 | -1.17 | -5.26 | 2.29 | inactive
FBXO11 | 3 | 0.299 | 5.07 | 6.66 | inactive
TOR3A | 1 | 0.021 | 3.11 | 3.89 | inactive
TOR3A | 2 | -0.0743 | 2.44 | 7.01 | inactive
TOR3A | 3 | -0.188 | 1.64 | 4.15 | inactive
